Data reported in patent US8415018B2, “Article having antisoiling properties and intended to be employed in aquatic uses, in particular marine uses” (Bluestar Silicones France SAS, priority 2008, dated 2013).

Legend:
[1] = Catalyst activity: pot-life or gel time on a simplified system; conditions: 0.7 mmol catalyst, 1.06 g advanced ethyl silicate, 25 g α,ω-dihydroxylated oil 14 000 centipoises
[2] = Catalyst activity: Shore A hardness (SAH) of a slug 6 mm thick over increasing times; conditions: 23° C. and 50% relative humidity; for SAH 24 h < / SAH 6 days < / SAH (n days) < / SAH 48 h <: lower part of slug; for SAH 24 h > / SAH 6 days > / SAH (n days) > / SAH 48 h >: upper part of slug

| Molecule | Pot-life [1] [min] | SAH 24 h < [2] [Shore A] | SAH 6 days < [2] [Shore A] | SAH (n days) < ([2]; 28 d) [Shore A] | SAH 24 h > [2] [Shore A] | SAH 6 days > [2] [Shore A] | SAH (n days) > ([2]; 28 d) [Shore A] | SAH 48 h < [2] [Shore A] | SAH (n days) < ([2]; 13 d) [Shore A] | SAH 48 h > [2] [Shore A] | SAH (n days) > ([2]; 13 d) [Shore A] | SAH (n days) < ([2]; 20 d) [Shore A] | SAH (n days) > ([2]; 20 d) [Shore A] |
| --- | --- | --- | --- | --- | --- | --- | --- | --- | --- | --- | --- | --- | --- |
| CCCCNC(=NC(C)C)NC(C)C [Catalyst A1, 1-butyl-2,3-diisopropylguanidine] | 0.5 | 9 | 25 | 18 | 23 | 24 | 22 | – | – | – | – | – | – |
| CCCCN(C)/C(=N/C(C)C)NC(C)C [Catalyst A3, 1-butyl-2,3-diisopropyl-1-methylguanidine] | – | 9 | – | – | 23 | – | – | 22 | 21 | 24 | 22 | – | – |
| CCCCN(C)/C(=N/C1CCCCC1)NC1CCCCC1 [Catalyst A4, 1-butyl-2,3-dicyclohexyl-1-methyl guanidine] | 8 to 9 | 19 | 24 | – | 21 | 24 | – | 21 | 23 | 21 | 23 | – | – |
| CN(C)C(=N)N(C)C [Comparative 2 (TMG), 1,1,3,3-tetramethylguanidine, reference compound] | 7 | – | – | – | – | – | – | – | – | – | – | – | – |
| dimethyltin bisneodecanoate [Comparative 1 (Sn), reference compound] | – | 22.5 | – | – | 22.5 | – | – | – | – | – | – | 23 | 23 |
